Source: publication PMC6775303

By UniProt entry, the sequences of proteins in these tests, tags left out. Where a name states a change or a piece, a line headed by the entry shows the natural chain unless it says otherwise.
UniProt P31977: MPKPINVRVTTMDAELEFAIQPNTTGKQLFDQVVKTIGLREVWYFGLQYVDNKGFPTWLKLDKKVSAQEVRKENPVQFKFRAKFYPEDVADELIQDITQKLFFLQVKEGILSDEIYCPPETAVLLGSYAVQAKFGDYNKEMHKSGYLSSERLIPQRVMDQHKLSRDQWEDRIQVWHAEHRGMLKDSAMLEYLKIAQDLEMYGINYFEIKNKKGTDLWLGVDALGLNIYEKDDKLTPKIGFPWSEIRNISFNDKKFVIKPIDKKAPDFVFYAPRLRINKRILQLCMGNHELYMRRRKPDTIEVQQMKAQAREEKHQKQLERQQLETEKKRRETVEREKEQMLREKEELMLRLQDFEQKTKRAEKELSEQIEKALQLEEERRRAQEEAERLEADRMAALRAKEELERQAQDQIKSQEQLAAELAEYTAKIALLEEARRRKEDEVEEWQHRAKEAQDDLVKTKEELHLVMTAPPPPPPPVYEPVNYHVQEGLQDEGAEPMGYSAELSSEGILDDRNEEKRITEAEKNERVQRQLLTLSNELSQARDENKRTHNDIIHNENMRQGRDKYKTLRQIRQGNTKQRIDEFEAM
UniProt A0ACM8Q1Z9: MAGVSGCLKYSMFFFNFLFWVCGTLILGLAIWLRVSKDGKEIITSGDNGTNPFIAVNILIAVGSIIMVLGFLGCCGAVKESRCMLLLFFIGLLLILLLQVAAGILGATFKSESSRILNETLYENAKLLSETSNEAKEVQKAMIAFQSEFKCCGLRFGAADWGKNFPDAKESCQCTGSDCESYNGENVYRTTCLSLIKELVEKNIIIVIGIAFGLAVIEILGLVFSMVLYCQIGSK

These substances were tested against T1, claudin7 (rat (endogenous in ASML)) (UniProt Q9Z1L1) (assay: affinity purification with mass spectrometry + co-IP; ASML-wt and ASML-cld7mP TEX lysed in HEPES buffer/1% Lubrol (mild lysis, 30 min, 4°C), precipitated with anti-cld7 and ProteinG-Sepharose; precipitates blotted with antibodies (Fig. 3B) and analysed by nanoLC-ESI-MS/MS (Fig. 3C)).
T1 sequence: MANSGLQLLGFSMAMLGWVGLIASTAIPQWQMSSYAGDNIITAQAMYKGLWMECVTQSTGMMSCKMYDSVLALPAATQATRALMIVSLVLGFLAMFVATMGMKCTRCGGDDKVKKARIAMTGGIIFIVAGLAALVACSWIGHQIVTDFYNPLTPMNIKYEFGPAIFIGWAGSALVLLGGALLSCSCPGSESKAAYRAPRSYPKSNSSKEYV

binding, binds:
ezrin (from UniProt P31977 1-586), CD49c (rat (endogenous in ASML)), Tspan8 (from UniProt A0ACM8Q1Z9)

No constants are given. Whether binding was seen depends on the method and setting. Binding seen in cells or lysates may run through a third protein. These calls come from enrichment with a bait or labelling near it, and not all partners need be listed.
